Measured values from patent US20050261273A1, “Substituted urea and carbamate, phenacyl-2-hydroxy-3-diaminoalkane, and benzamide-2-hydroxy-3-diaminoalkane aspartyl-protease inhibitors” (priority 2004, published 2005).

Settings: CF-1 mice, 10 μmol/kg IV tail vein, non-perfused brain, corrected for plasma volume
Description: In-life phase: Test compounds were administered to CF-1 (20-30 g) mice at 10 μmol/kg (4 to 7 mg/kg) following IV administration in the tail vein. Two time-points, 5 and 60 min, were collected post dose. Four mice were harvested for heparinized plasma and non-perfused brains at each time-point for a total of 8 mice per compound.
Analytical phase: Samples were extracted and evaporated to dryness, then reconstituted and injected onto a reverse phase chromatographic column while monitoring the effluent with a triple quadrupole mass spectrometer. […] The lower limit of quantitation (LOQ) is generally 1 ng/mL and 0.5 ng/g for the plasma and brain respectively. Data was reported in micromolar (μM) units. Brain levels were corrected for plasma volumes (16 μL/g).

**Q.** For CN1C(=O)CN=C(c2ccccc2)c2cc(Cl)ccc21 [Diazepam], which “concentration level in the brain at 5 min” value (5 min post dose) is on record?
**A.** 5481 nM

**Q.** And the “concentration level in the brain at 60 min” value (60 min post dose)?
**A.** 176 nM
